From PubChem BioAssay AID743266 (National Center for Advancing Translational Sciences (NCATS), 2014)
The whole screen tested about 410,000 compounds, of which about 310 (0.076%) were called active. Inconclusive results, whose numbers are uncertain, are shown with a selection of clear calls. The call rests on the fitted dose curve; in most records, active means well fitted activation curve with a large enough effect; inconclusive means small, poorly fitted or top-dose-only effect, or another doubt; inactive means no such curve, though single readings can be large or run the other way. Potencies beside an inconclusive call are fits to weak or partial responses and may not hold up.

By UniProt entry, the sequences of proteins in these tests, tags left out.
UniProt Q03431, whole entry, looked up: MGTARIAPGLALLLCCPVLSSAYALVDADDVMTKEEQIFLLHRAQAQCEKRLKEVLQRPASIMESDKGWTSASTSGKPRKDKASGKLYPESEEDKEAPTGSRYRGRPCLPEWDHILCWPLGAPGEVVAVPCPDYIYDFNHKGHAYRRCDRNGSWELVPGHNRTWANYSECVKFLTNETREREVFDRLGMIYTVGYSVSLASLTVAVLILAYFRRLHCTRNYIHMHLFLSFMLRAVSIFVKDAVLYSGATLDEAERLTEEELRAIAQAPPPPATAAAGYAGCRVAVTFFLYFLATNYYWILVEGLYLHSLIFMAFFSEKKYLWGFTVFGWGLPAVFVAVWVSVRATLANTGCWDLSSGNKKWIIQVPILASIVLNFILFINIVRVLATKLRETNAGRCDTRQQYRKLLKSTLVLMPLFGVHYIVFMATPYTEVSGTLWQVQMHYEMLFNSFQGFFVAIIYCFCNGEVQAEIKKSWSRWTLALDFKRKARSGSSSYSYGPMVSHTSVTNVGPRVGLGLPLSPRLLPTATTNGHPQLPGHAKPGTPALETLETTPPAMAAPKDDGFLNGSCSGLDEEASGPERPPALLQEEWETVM

target: Parathyroid hormone/parathyroid hormone-related peptide receptor (Homo sapiens) (UniProt Q03431); assay: qHTS for PTHR1 Agonists: Primary Screen; conditions: HEK293 GP2 PTHR1 cells, GloSensor cAMP luminescence, 1 h; activation: at 115 µM (top of the series) unless noted; series mostly up to 115 µM; further: nearly all actives have a fitted effect of over 55% in size
Procedure, shortened: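 HEK-293-derived GP2 cells expressing PTHR1 and a GloSensor cAMP reporter, 3,000/well, plated overnight, given luciferin plus IBMX (each 0.5 mM as added) for 1 h at 37 °C, then compound for 1 h at 37 °C. Luminescence was read after 15 min at room temperature.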
Potency means the concentration at half of the fitted maximal effect.

SMILES | Potency | activation | outcome
O=C1C(=O)N(CCCn2ccnc2)C(c2ccc(Cl)cc2)/C1=C(\O)c1ccc2c(c1)OCCO2 (centres undefined) | inconclusive: 126 µM [activator, single point] |  | 
O=C1CCCC/C1=C\Nc1ccc(O)cc1 | inconclusive: 14.1 µM [activator, partial curve, poor fit] |  | 
CCOc1ccc(Br)cc1S(=O)(=O)Nc1ccc(NC(=O)c2ccccc2C)cc1 | inconclusive: 1.58 µM [activator, partial curve] |  | 
CCCc1c(C(=O)N/N=C/c2c[nH]c3ccccc23)nnn1-c1nonc1N |  | inactive: -29.1% | 
Cc1cc(NC2CCCCC2)nc2ccccc12 | inconclusive: 22.4 µM [activator, partial curve, poor fit] |  | 
O=C(CSCc1nc2cccnc2n1C1CCCCC1)NCc1cccc(Cl)c1 |  | inconclusive: 52.9% [activator] | 
NC(=O)NC(=O)COC(=O)CCCSc1nc2ccccc2s1 | inconclusive: 126 µM [activator, single point] |  | 
COc1cc(OC)c(Nc2nc3ccccc3nc2-n2nc(C)cc2C)cc1Cl |  | inconclusive: 95.5% [activator] | 
CCNC(=O)NC(=O)C(C)OC(=O)c1oc2ccccc2c1CSC1CCCCC1 (centres undefined) |  | inactive: -3.8% | 
COc1ccc(-c2csc(Nc3cccc(C)n3)n2)cc1C |  | inactive: -13.5% | 
C=CCOC(=O)C1=C[C@@H](c2ccc(C(F)(F)F)cc2)[C@H](CCCO)[C@@H](OCC)O1 |  | inactive: -1.96% | 
CNC(=O)Nc1ccc(Cl)cc1 |  | inconclusive: 20.5% [activator] | 
CCOC(=O)[C@@H]1[C@H]2COc3ccc(Br)cc3[C@@H]2N2C(=O)N(c3ccccc3)C(=O)[C@@]12C |  | inconclusive: 41% [activator] | 
CCOc1ccc(CNC(=O)c2ccc3c(c2)c(C)c(C)n3Cc2ccc(Cl)cc2)cc1 | inconclusive: 22.4 µM [activator, single point] |  | 
Cc1nc2ccc(S(=O)(=O)NCC(=O)Nc3ccc(F)cc3)cc2s1 | inconclusive: 28.2 µM [activator, single point] |  | 
CCCc1cc(=O)oc2cc(OCC(=O)N(C)C)c(Cl)cc12 |  | inconclusive: -5.63% [activator] [at 57.5 µM] | 
COc1ccc(-n2c3c(cc(-c4nc(-c5ccc(Cl)cc5)cs4)c2=O)C(=O)CC(C)(C)C3)cc1 | inconclusive: 141 µM [activator, single point] |  | 
CNS(=O)(=O)c1cccc(C(=O)OCc2cc(Cl)cc3c2OCOC3)c1 | inconclusive: 56.2 µM [activator, single point] |  | 
COc1ccc(C2c3c(n(C)c4ccccc34)C(=O)N2CC(=O)Nc2ccccc2F)cc1 (centres undefined) |  | inconclusive: -17.2% [activator] | 
Cc1ccc(NC(=O)CSc2nnc(C)n2C2CC2)cc1S(=O)(=O)N1CCOCC1 | inconclusive: 56.2 µM [activator, single point] |  | 
O=C1CC(N2CCC(c3nc4ccccc4[nH]3)CC2)C(=O)N1c1ccccc1F (centres undefined) |  | inconclusive: 38% [activator] | 
COC(=O)C(NC(=O)c1cccnc1Cl)C(C)C (centres undefined) |  |  | inactive
COC(=O)c1c(F)c(F)c(N2CCOCC2)c(F)c1F | inconclusive: 1.26 µM [activator, full curve, poor fit] |  | 

SMILES | Potency | activation | outcome
COc1ccc(-n2ncc3c(SCC(=O)N4CCN(c5ccccc5OC)CC4)ncnc32)cc1 | inconclusive: 50.1 µM [activator, single point] |  | 
CCCCc1cc(=O)oc2c(CN3CCN(C)CC3)c(O)ccc12 | inconclusive: 11.2 µM [activator, partial curve, poor fit] |  | 
O=C(O)c1ccc(/C=C/c2ccc3cccc(O)c3n2)cc1 |  | inactive: -27.9% | 
O=C(NC1CC(=O)N(c2ccc(Cl)cc2)C1)c1ccc2c(c1)OCO2 (centres undefined) |  |  | inactive
CCC(=O)Nc1cccc(C2=NOC3(C2)C[C@@H](C(N)=O)N(C(=O)COc2ccc(Cl)cc2)C3)c1 (some centres undefined) |  | inactive: -14.1% | 
O=C(NC(NC(=S)Nc1ccc(Cl)cc1Cl)C(Cl)(Cl)Cl)c1cccc([N+](=O)[O-])c1 (centres undefined) |  | inactive: -46.4% [at 57.5 µM] | 
O=C(c1ccco1)N(CCC(c1ccccc1)c1ccco1)Cc1ccc(F)cc1 (centres undefined) | inconclusive: 3.55 µM [activator, single point] |  | 
O=C(c1ccc(CSc2nc3ccncc3n2Cc2cccc(F)c2)cc1)N1CCCCC1 |  | inactive: -32.2% | 
O=c1[nH][nH]c(-c2ccccc2O)c1C(C[N+](=O)[O-])c1ccc(Br)cc1 (centres undefined) |  |  | inactive
CCCCn1c(N)c(N(CCOC)C(=O)COC(=O)COc2cc(C)c(Cl)cc2C(C)C)c(=O)[nH]c1=O |  | inactive: -7.14% | 
O=C(Oc1c(-c2ccccc2)oc2ccccc2c1=O)c1ccccc1 |  | inactive: -14.9% | 
O=C(CSc1n[nH]c(=O)[nH]c1=O)Nc1ccc(Br)cc1Br | inconclusive: 56.2 µM [activator, single point] |  | 
C#CCOC(=O)c1ccccc1C(=O)O | inconclusive: 44.7 µM [activator, single point] |  | 
COC(=O)CCC(=O)Nc1ccc(Br)cc1 | inconclusive: 44.7 µM [activator, single point] |  | 
O=C(Nc1ncccc1O)c1ccc(NS(=O)(=O)c2ccc3[nH]c(=O)[nH]c3c2)cc1 | inconclusive: 35.5 µM [activator, partial curve, poor fit] |  | 
CS(=O)(=O)N(Cc1ccco1)CC(O)Cn1cc(C=O)c2ccccc21 (centres undefined) | inconclusive: 2.51 µM [activator, partial curve, poor fit] |  | 
COc1cccc(CNc2nc3cc(-c4ccccc4CO)sc3c(=O)n2C)c1 | inconclusive: 7.94 µM [activator, partial curve, poor fit] |  | 
COc1ccc2c(c1)c(=O)c(C(=O)c1ccccc1)cn2CC(=O)Nc1ccc2c(c1)OCCO2 |  |  | inactive
Cc1cccc(OCCSc2nc3ccccc3n2CC(=O)N2CCOCC2)c1 |  | inconclusive: 30.1% [activator] | 
CCN(CC)C(=O)CSc1nnc(-c2cc(OC)cc(OC)c2)o1 |  | inconclusive: 555% [activator] [at 57.5 µM] | 
CC(C)CN(C(=O)C1CCC1)c1c(N)n(Cc2ccccc2)c(=O)[nH]c1=O | inconclusive: 1.26 µM [activator, partial curve, poor fit] |  | 
O=C(COC(=O)c1ccc(Cl)nc1)NCCc1ccc(F)cc1 |  | inconclusive: 68.5% [activator] | 
CCCCCCNc1nc(NCc2ccco2)nc(OCC)n1 | inconclusive: 3.16 µM [activator, partial curve] |  | 

SMILES | Potency | activation | outcome
COc1ccc(Cl)cc1NC(=O)Cn1ncc2c3ccccc3n(C)c2c1=O |  | inconclusive: 72.3% [activator] | 
CCOC(=O)c1ccc2nc(C)cc(Nc3cccc(C(=O)O)c3)c2c1 |  | inconclusive: 40.8% [activator] | 
Cc1ncc([N+](=O)[O-])n1CCOC(=O)NC(NCc1ccccc1)C(Cl)(Cl)Cl (centres undefined) | inconclusive: 1.41 µM [activator, partial curve, poor fit] |  | 
C#CCOCCOCCOCCNc1nc(N2CCN(C(=O)CCCCCCCCCCNC(=O)[C@H]([C@@H](C)CC)n3cc(CCCCN=C(N)N)nn3)CC2)nc(N2CCN(C(=O)CCCCCCCCCCNC(=O)[C@H](CO)n3cc(CCCSC)nn3)CC2)n1 | inconclusive: 1.08 µM [activator, full curve, poor fit] |  | 
O=C(Cc1ccc(F)cc1)NCC1CCCO1 (centres undefined) |  | inconclusive: 34.8% [activator] | 
O=S(=O)(NCc1nc2cccnc2n1Cc1ccc(F)cc1)c1ccc2c(c1)CCCC2 |  | inactive: -79.7% | 
COC(=O)Cn1c(CN2CCN(C(=O)c3ccco3)CC2)nc2c1c(=O)n(C)c(=O)n2C |  | inconclusive: 55.9% [activator] | 
CN(Cc1nc(-c2cnccn2)no1)Cc1n[nH]c2c1CCCCC2 |  | inconclusive: 39.2% [activator] | 
CC(C)(C)OC(=O)N1CCC(NC(=O)c2[nH]cnc2C(=O)Nc2cccc(Cl)c2)CC1 |  | inactive: -72.3% | 
CC1CCN(CC(=O)Nc2ccccc2-c2ccccc2)CC1 |  | inactive: -22.5% [at 57.5 µM] | 
O=c1c(C=Nc2ccc(Cl)cc2)c[nH]n1-c1cccc(Cl)n1 |  | inactive: -2.77% [at 57.5 µM] | 
CCCN(C(=O)CSc1nc2cc(S(=O)(=O)N(CC)CC)ccc2o1)C1CCS(=O)(=O)C1 (centres undefined) |  | inconclusive: -48.9% [activator] | 
Cc1ccccc1NS(=O)(=O)c1ccc(OCC(=O)N2CCCCC2)cc1 | inconclusive: 39.8 µM [activator, single point] |  | 
Cc1ccsc1/C=N\NC(=O)c1n[nH]c2c1CCC2 |  | inactive: -32% | 
CC(=O)c1ccc(Nc2nc(-c3sc(C)nc3C)cs2)cc1 |  | inactive: -38.3% | 
CC(C)C[C@H]1CNC(=O)C(=O)N1C[C@@H]1CCCN1C[C@H](CC(C)C)N1C[C@H](Cc2ccccc2)N(CCc2ccccc2)C(=O)C1=O | inconclusive: 100 µM [activator, single point] |  | 
CCCC(=O)N1CCN(c2nc3c(OC)ccc(Cl)c3s2)CC1 |  | inactive: -84.7% | 
Cc1ccc(CC(=O)Nc2nc3ccccc3s2)cc1 |  | inactive: -15.3% [at 57.5 µM] | 
CSCCC(NS(=O)(=O)c1ccccc1F)C(=O)NCc1cccs1 (centres undefined) | inconclusive: 12.6 µM [activator, partial curve, poor fit] |  | 
COC(=O)c1ccc(Cl)cc1NC(=O)N1CCCn2nc(C)cc21 | inconclusive: 79.4 µM [activator, partial curve, poor fit] |  | 
COc1nc(-c2ccc(C)cc2)ccc1-c1noc(-c2ccccc2Br)n1 | inconclusive: 39.8 µM [activator, partial curve, poor fit] |  | 
N#Cc1c(N2CCOCC2)nsc1-c1ccc(C(F)(F)F)cc1 |  | inconclusive: -86.8% [activator] | 
CCOC(=O)C1=NOC(Cn2cc(C(C)=O)c(=O)[nH]c2=O)C1 (centres undefined) |  | inconclusive: 34.8% [activator] | 

Single entries from the list:
CCOC(=O)C1=NOC(Cn2cc(C(C)=O)c(=O)[nH]c2=O)C1 (centres undefined) | activation: inconclusive: 34.8% [activator]
CCOc1ccc(CNC(=O)c2ccc3c(c2)c(C)c(C)n3Cc2ccc(Cl)cc2)cc1 | Potency: inconclusive: 22.4 µM [activator, single point]
COC(=O)CCC(=O)Nc1ccc(Br)cc1 | Potency: inconclusive: 44.7 µM [activator, single point]
Cc1nc2ccc(S(=O)(=O)NCC(=O)Nc3ccc(F)cc3)cc2s1 | Potency: inconclusive: 28.2 µM [activator, single point]
O=C1CCCC/C1=C\Nc1ccc(O)cc1 | Potency: inconclusive: 14.1 µM [activator, partial curve, poor fit]
